Source: patent US20180028686A1 (priority 2014, published 2018)
These are yes or no findings as the source states them, for the method shown. Some binding calls cover weakened binding; strength is not graded here.

Protein sequences, listed by entry. Tags and fused reporters are not part of them. Residues count along the entry.
UniProt P08581, residues 25-1390: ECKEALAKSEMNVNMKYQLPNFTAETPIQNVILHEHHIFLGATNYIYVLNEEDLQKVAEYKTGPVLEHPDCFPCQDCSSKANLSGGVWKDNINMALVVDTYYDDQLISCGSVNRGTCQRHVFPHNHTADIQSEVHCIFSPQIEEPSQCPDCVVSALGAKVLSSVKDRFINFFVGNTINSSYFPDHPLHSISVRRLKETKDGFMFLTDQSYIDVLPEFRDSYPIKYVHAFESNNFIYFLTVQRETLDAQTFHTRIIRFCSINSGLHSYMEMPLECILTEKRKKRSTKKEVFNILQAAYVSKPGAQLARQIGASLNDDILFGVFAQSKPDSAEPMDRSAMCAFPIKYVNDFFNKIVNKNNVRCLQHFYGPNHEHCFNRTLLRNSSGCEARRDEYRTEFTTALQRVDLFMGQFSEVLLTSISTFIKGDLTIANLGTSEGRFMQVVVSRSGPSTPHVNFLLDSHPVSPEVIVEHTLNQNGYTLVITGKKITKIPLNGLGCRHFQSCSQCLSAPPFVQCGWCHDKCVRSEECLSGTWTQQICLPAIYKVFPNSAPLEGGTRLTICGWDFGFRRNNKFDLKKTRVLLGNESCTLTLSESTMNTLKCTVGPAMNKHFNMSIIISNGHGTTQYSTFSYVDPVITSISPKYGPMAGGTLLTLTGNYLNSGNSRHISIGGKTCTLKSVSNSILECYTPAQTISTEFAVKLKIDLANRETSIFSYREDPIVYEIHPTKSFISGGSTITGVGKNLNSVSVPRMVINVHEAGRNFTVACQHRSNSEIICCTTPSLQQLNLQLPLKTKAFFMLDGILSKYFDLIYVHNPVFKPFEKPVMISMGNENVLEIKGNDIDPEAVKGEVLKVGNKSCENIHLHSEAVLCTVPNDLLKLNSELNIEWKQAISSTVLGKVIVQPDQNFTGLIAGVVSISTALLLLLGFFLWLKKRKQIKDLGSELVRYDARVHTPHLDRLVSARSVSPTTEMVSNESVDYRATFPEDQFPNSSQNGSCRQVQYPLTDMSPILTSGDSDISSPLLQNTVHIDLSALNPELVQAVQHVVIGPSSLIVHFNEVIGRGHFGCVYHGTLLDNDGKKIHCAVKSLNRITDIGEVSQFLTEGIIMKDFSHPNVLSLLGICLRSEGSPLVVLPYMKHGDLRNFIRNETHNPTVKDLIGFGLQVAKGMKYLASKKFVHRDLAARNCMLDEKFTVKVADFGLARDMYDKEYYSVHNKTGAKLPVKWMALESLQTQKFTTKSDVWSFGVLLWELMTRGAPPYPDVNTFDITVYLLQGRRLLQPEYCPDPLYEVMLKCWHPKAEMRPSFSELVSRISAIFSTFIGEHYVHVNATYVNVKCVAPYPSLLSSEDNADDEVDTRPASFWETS

B1: MET binding peptide IPLKVHP (SEQ ID NO: 124) (peptide)
peptide: IPLKVHP
B2: MET binding peptide ASVHFPP (SEQ ID NO: 121) (peptide)
peptide: ASVHFPP
B3: MET binding peptide TATFWFQ (SEQ ID NO: 122) (peptide)
peptide: TATFWFQ
B4: MET binding peptide WPRLTNM (SEQ ID NO: 125) (peptide)
peptide: WPRLTNM
B5: MET binding peptide TSPVALL (SEQ ID NO: 123) (peptide)
peptide: TSPVALL

Each binder was assayed against MET receptor (a.k.a. hepatocyte growth factor receptor, expressed by gene c-MET) (UniProt P08581) (assay: phage display biopanning; binding assay not described).

Row | binding | Binder
1 | binds | B1
2 | binds | B2
3 | binds | B3
4 | binds | B4
5 | binds | B5
